{
  "source": "patent US5356781A",
  "about": "(Bioscience International, Inc., priority 1986, dated 1994)",
  "experiment": "general procedure: Fmoc solid-phase peptide synthesis; polystyrene solid phase supports with acid-labile p-alkoxybenzyl alcohol C-terminal linker; hydroxybenzotriazole coupling",
  "details": "whole synthesis",
  "data": [
    {"substance": "CAPFD4 K", "values": [
      {"measurement": "isolated yield", "result": 35, "unit": "%"}
    ]}
  ]
}
